# Assay results

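Genome-wide siRNA knockdown in TC32 Ewing sarcoma cells, comparing luciferase light from an NR0B1-promoter reporter with a CMV-promoter reporter 48 hours after transfection. Each siRNA was applied at 20 nM. A z-score of the log NR0B1-over-CMV signal, less the median of siRNAs with the same seed; more negative means a stronger specific loss of the NR0B1 reporter.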

The strongest results of the screen are mostly left out here. Sequences are the guide (antisense) strand, without overhang.

| # | strand | gene | seed-corrected z-score |
|---|---|---|---|
| 1 | `UCACCAUAAACAUUGCUGC` | LAMP1 | 0.3496 |
| 2 | `UGCUUCAUCAGAGAGAAUC` | MIA3 | -0.1461 |
| 3 | `UUUAGCACCUCAAUCAUCG` | TTC13 | 0.2906 |
| 4 | `UAUUGUUGGAUCAUAUUCG` | KRAS | -0.02141 |
| 5 | `UUUCCAUCAAAUGCGAAGC` | IL20RA | -0.4011 |
| 6 | `UCAUCUCUGACUACAGUGC` | KCNMB3 | -0.00725 |
| 7 | `UCCAUACAAACCGCUGAUC` | SACM1L | 0.2359 |
| 8 | `UUGGUGUACUUCUUGAGCU` | CHST12 | -0.2383 |
| 9 | `UUUGAGUGAAGCACUUGCC` | ZNF665 | 0.5202 |
| 10 | `AUUGGACGAAUCUCGACCC` | SETD3 | 0.743 |
| 11 | `UUCAGGGAGGGUUUUAUCC` | SNAPC4 | 1.393 |
| 12 | `UCCAUGGUAAUAGAUCUCC` | ARRB1 | 0.551 |
| 13 | `UAUUGAUGGUGGAUUAUGC` | BRAF | -0.04684 |
| 14 | `UUCCUUCUCAUCGAGACAC` | CPTP | -0.3815 |
| 15 | `AAAGUAAUCAGAUUUUCCA` | NPS | -0.1285 |
| 16 | `UCUCAACGGAGGAAAAUGC` | ZNF581 | 0.03665 |
| 17 | `UCUGUUACGGAGUAAAGCC` | RHOA | -0.8388 |
| 18 | `UGCUCGAUCAGGAUGUCAC` | NT5DC2 | 1.829 |
| 19 | `UGUUGACUAAGAUGCAGUC` | ALG2 | 0.7795 |
| 20 | `UUAUCAUCCAAGAUCCUGU` | OR2L2 | 0.2503 |
| 21 | `UAUGCUAUUCAAAGAAUCC` | OXR1 | 0.3 |
| 22 | `UCAUUUGAUAGGUCACAUC` | DHRS11 | 0.4819 |
| 23 | `UUUGGGAUAGGUGUACAAA` | OLMALINC | 0.03366 |
| 24 | `UUAAGUUCUCACCUUGACG` | TAX1BP3 | 0.2919 |
| 25 | `UGCAUUCCCACGGAGUAUG` | RHPN2 | 0.253 |
| 26 | `UCACUGACCACUCUUCGUC` | CECR1 | -0.2675 |
| 27 | `UCCUUGACCACCCGGAACU` | SYP | -0.6715 |
| 28 | `UUAACUCAGAAGGGAAUUC` | ID2 | -0.09848 |
| 29 | `UUGUAUUCCGGAAGUGAGC` | KMO | -0.5842 |
| 30 | `UUGGAUCAAGGGUAAAUCC` | RAD21L1 | 0.6347 |
| 31 | `UGUUGUGCAAGCUACUGCU` | NUTM2A-AS1 | 0.6792 |
| 32 | `UAGUCGUAGGGAUUGUUGG` | MYH6 | -0.3112 |
| 33 | `UGCCUUAAUCCUACUAUGC` | RAPGEF2 | -1.19 |
| 34 | `AGUUUGUCCACCGUAGUCU` | SLC8A3 | -1.907 |
| 35 | `UAUGGGUGAUCUGUCAGCA` | DDAH2 | 0.3935 |
| 36 | `UGUUGGAUAACUGGUUCUC` | PIR | 0.08822 |
| 37 | `ACUACAUUCAUGGUCUUUC` | ZNF232 | -0.4539 |
| 38 | `AUAGUGAUCCUAACCAUGG` | ANAPC1 | 0.6801 |
| 39 | `UUCAUAGCAACUGAUCCUC` | PFKFB3 | -0.716 |
| 40 | `GCAUGGAUGACACACAGGU` | HIST3H3 | 1.402 |
| 41 | `UCUGGAGCUCCGGAAACUC` | PRR23A | -0.06092 |
| 42 | `UGGAAAUCAAGGCCCUCCC` | AQP2 | 0.4956 |
| 43 | `AUUCUCGUAAGGUCUUUGC` | RIPK1 | -0.992 |
| 44 | `UUUCGCACUCGUUCAGCUC` | ARL13B | -0.5738 |
| 45 | `AUCAAUUCAAUGUUGUAGC` | IL1RAPL2 | -1.67 |
| 46 | `UUGCUUUUGCGUCUUAUGG` | NGEF | -0.4958 |
| 47 | `UCUCUGAGCAGGUAAUUGG` | POU6F1 | -0.08264 |
| 48 | `ACUGAUGUCAAUAUAAUCC` | DLST | 0.3244 |
| 49 | `UCCAUGGUUAGAGCUUUGG` | CLEC4F | 0.1417 |
| 50 | `UCCGAGACAGGUGAAACAC` | SLC9A5 | -0.07716 |
| 51 | `UGAAGUCAAAGUCGAACUG` | TMEM229B | -1.822 |
| 52 | `UUGUCGGACAUACUUCUGG` | RPL14 | -0.6178 |
| 53 | `UCAUAUUCUCCACGAUUCC` | NUBP2 | 1.178 |
| 54 | `AAUACUACAAAGGUGAGGC` | ZBTB41 | -0.06104 |
| 55 | `UCUGAUAUGAAUUUCUAGG` | LOC728755 | -0.2408 |
| 56 | `UGUACUUGAAUAGCGCACC` | FAM73A | 0.03705 |
| 57 | `UCGGAUUUCAUGGACGACC` | RNF165 | 0.9996 |
| 58 | `UUUCAUAGCAGCCCGUUCU` | TSPAN9 | 0.07641 |
| 59 | `UCUGAAGUCAGAAUGAUGG` | IL36G | 0.228 |
| 60 | `AAGGUGGUCGUGACUGUCC` | GRIFIN | -0.6488 |
| 61 | `UGAUUUACGGUGAAAUUCC` | IFIT5 | 0.183 |
| 62 | `UUGAUGAACGCGGAGAACU` | CLIC3 | 0.437 |
| 63 | `ACCAGGACCACACUUCCCU` | LOC126860 | -0.721 |
| 64 | `AUUAGAUAAAGAGUGAUUC` | IFNA7 | 0.9356 |
| 65 | `UGUGCCAUGAGAAUGUCUG` | TTC34 | -0.2866 |
| 66 | `AUAGGCAAAGGUGCGCUGG` | TRIM46 | -0.3586 |
| 67 | `UUAGCUCUACCUUUUGUUU` | LOC729978 | 0.75 |
| 68 | `UCAUGUACUCUAGCAAUUC` | CALCOCO1 | 0.9403 |
| 69 | `UUCGUGAAAUAAGAUGUUC` | FBXW11 | 0.6436 |
| 70 | `UGCCUUCUUAUACAUCUGC` | RRM2 | -0.2132 |
| 71 | `UUCAGGCCUGUGCUCUUCC` | PLEKHG5 | -0.7372 |
| 72 | `AUUCUUAUAGGGAAUGGGC` | KRTAP5-9 | 0.5573 |
| 73 | `AAUGUAACUCUGCUGAUUG` | CPEB3 | 1.384 |

Some entries from above, unchanged:

GCAUGGAUGACACACAGGU against HIST3H3 read seed-corrected z-score 1.402.
UGCAUUCCCACGGAGUAUG against RHPN2 read seed-corrected z-score 0.253.
AUUAGAUAAAGAGUGAUUC against IFNA7 read seed-corrected z-score 0.9356.
UUGGAUCAAGGGUAAAUCC against RAD21L1 read seed-corrected z-score 0.6347.
UUGAUGAACGCGGAGAACU against CLIC3 read seed-corrected z-score 0.437.
AUAGGCAAAGGUGCGCUGG against TRIM46 read seed-corrected z-score -0.3586.

The results are deposited in PubChem (AID1159506; NCATS, 2015).